Test results from the supplement of paper PMC7661543.
The effect of the compound repeats well; differences between the knockouts mostly do not. Where a SMILES comes first, the peptide text is derived from it. The star is where a group is joined. Cbz = O=C(OCc1ccccc1)*

Test system: HCC-38
Assay: relative cell number vs DMSO control (72 h) (% of DMSO); higher = less growth inhibition (more cells)
Experimental: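 QMAP-Seq: a pool of 5 breast cancer cell lines (ZR-75-1, SKBR3, HCC-38, MDA-MB-231, BT-20), each carrying 12 doxycycline-inducible Cas9 sgRNA perturbations (11 knockouts plus non-targeting sgNT), was treated with compounds for 72 h at four 10-fold doses (10 nM-10 uM or 1 nM-1 uM range). Barcodes were amplified and sequenced, and cell number was interpolated from 293T spike-in standard curves. The result is expressed as % of the median of DMSO wells. Two biological replicates.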

CC(C)C[C@@H](C=O)NC(=O)[C@H](CC(C)C)NC(=O)[C@H](CC(C)C)NC(=O)OCc1ccccc1 [MG132] (Cbz-Leu-Leu-Leu-aldehyde)
Conditions	relative cell number
sgRNA knockout: sgATF3, 10 nM	99.9
sgRNA knockout: sgATF3, 100 nM	99.9
sgRNA knockout: sgATF3, 1000 nM	7.44
sgRNA knockout: sgATF3, 10000 nM	7.5
sgRNA knockout: sgATF4, 10 nM	88.3
sgRNA knockout: sgATF4, 100 nM	102
sgRNA knockout: sgATF4, 1000 nM	6
sgRNA knockout: sgATF4, 10000 nM	7.229
sgRNA knockout: sgATF6, 10 nM	83.06
sgRNA knockout: sgATF6, 100 nM	96.91
sgRNA knockout: sgATF6, 1000 nM	10.7
sgRNA knockout: sgATF6, 10000 nM	10.1
sgRNA knockout: sgATG7, 10 nM	88.1
sgRNA knockout: sgATG7, 100 nM	92.8
sgRNA knockout: sgATG7, 1000 nM	7.21
sgRNA knockout: sgATG7, 10000 nM	8.4
sgRNA knockout: sgERN1, 10 nM	99.3
sgRNA knockout: sgERN1, 100 nM	95.9
sgRNA knockout: sgERN1, 1000 nM	6.27
sgRNA knockout: sgERN1, 10000 nM	8.15
sgRNA knockout: sgHSF1, 10 nM	89.3
sgRNA knockout: sgHSF1, 100 nM	90.3
sgRNA knockout: sgHSF1, 1000 nM	7.64
sgRNA knockout: sgHSF1, 10000 nM	4.705
sgRNA knockout: sgHSF2, 10 nM	88.9
sgRNA knockout: sgHSF2, 100 nM	111
sgRNA knockout: sgHSF2, 1000 nM	7.6
sgRNA knockout: sgHSF2, 10000 nM	6.18
sgRNA knockout: sgKEAP1, 10 nM	89.8
sgRNA knockout: sgKEAP1, 100 nM	92
sgRNA knockout: sgKEAP1, 1000 nM	8.14
sgRNA knockout: sgKEAP1, 10000 nM	5.83
sgRNA knockout: sgNFE2L2, 10 nM	85.8
sgRNA knockout: sgNFE2L2, 100 nM	96.3
sgRNA knockout: sgNFE2L2, 1000 nM	6.27
sgRNA knockout: sgNFE2L2, 10000 nM	5.82
sgRNA knockout: sgSLC35F2, 10 nM	93.61
sgRNA knockout: sgSLC35F2, 100 nM	99.1
sgRNA knockout: sgSLC35F2, 1000 nM	7.06
sgRNA knockout: sgSLC35F2, 10000 nM	7.14
sgRNA knockout: sgXBP1, 10 nM	91.3
sgRNA knockout: sgXBP1, 100 nM	101
sgRNA knockout: sgXBP1, 1000 nM	7.01
sgRNA knockout: sgXBP1, 10000 nM	7.54

CC(C)(C)c1nc(-c2cccc(NS(=O)(=O)c3c(F)cccc3F)c2F)c(-c2ccnc(N)n2)s1 [Dabrafenib]
Conditions	relative cell number
sgRNA knockout: sgATF3, 10 nM	151
sgRNA knockout: sgATF3, 100 nM	103
sgRNA knockout: sgATF3, 1000 nM	101
sgRNA knockout: sgATF3, 10000 nM	95
sgRNA knockout: sgATF4, 10 nM	147
sgRNA knockout: sgATF4, 100 nM	94.8
sgRNA knockout: sgATF4, 1000 nM	97.2
sgRNA knockout: sgATF4, 10000 nM	92.4
sgRNA knockout: sgATF6, 10 nM	131
sgRNA knockout: sgATF6, 100 nM	115
sgRNA knockout: sgATF6, 1000 nM	118
sgRNA knockout: sgATF6, 10000 nM	95.7
sgRNA knockout: sgATG7, 10 nM	128
sgRNA knockout: sgATG7, 100 nM	101
sgRNA knockout: sgATG7, 1000 nM	98
sgRNA knockout: sgATG7, 10000 nM	102
sgRNA knockout: sgERN1, 10 nM	145
sgRNA knockout: sgERN1, 100 nM	107
sgRNA knockout: sgERN1, 1000 nM	116
sgRNA knockout: sgERN1, 10000 nM	92.9
sgRNA knockout: sgHSF1, 10 nM	131
sgRNA knockout: sgHSF1, 100 nM	122
sgRNA knockout: sgHSF1, 1000 nM	112
sgRNA knockout: sgHSF1, 10000 nM	94.6
sgRNA knockout: sgHSF2, 10 nM	141
sgRNA knockout: sgHSF2, 100 nM	112
sgRNA knockout: sgHSF2, 1000 nM	104
sgRNA knockout: sgHSF2, 10000 nM	86.9
sgRNA knockout: sgKEAP1, 10 nM	149
sgRNA knockout: sgKEAP1, 100 nM	111
sgRNA knockout: sgKEAP1, 1000 nM	101
sgRNA knockout: sgKEAP1, 10000 nM	121
sgRNA knockout: sgNFE2L2, 10 nM	133
sgRNA knockout: sgNFE2L2, 100 nM	92.6
sgRNA knockout: sgNFE2L2, 1000 nM	96.2
sgRNA knockout: sgNFE2L2, 10000 nM	95
sgRNA knockout: sgSLC35F2, 10 nM	140
sgRNA knockout: sgSLC35F2, 100 nM	102
sgRNA knockout: sgSLC35F2, 1000 nM	101
sgRNA knockout: sgSLC35F2, 10000 nM	101
sgRNA knockout: sgXBP1, 10 nM	149
sgRNA knockout: sgXBP1, 100 nM	103
sgRNA knockout: sgXBP1, 1000 nM	105
sgRNA knockout: sgXBP1, 10000 nM	95.2

CO[C@H]1C[C@@H]2CC[C@@H](C)[C@@](O)(O2)C(=O)C(=O)N2CCCC[C@H]2C(=O)O[C@H]([C@H](C)C[C@@H]2CC[C@@H](OCCO)[C@H](OC)C2)CC(=O)[C@H](C)/C=C(\C)[C@@H](O)[C@@H](OC)C(=O)[C@H](C)C[C@H](C)/C=C/C=C/C=C/1C [Everolimus]
Conditions	relative cell number
sgRNA knockout: sgATF3, 1 nM	63.5
sgRNA knockout: sgATF3, 10 nM	54.1
sgRNA knockout: sgATF3, 100 nM	61.1
sgRNA knockout: sgATF3, 1000 nM	65.5
sgRNA knockout: sgATF4, 1 nM	61.2
sgRNA knockout: sgATF4, 10 nM	57.3
sgRNA knockout: sgATF4, 100 nM	63.3
sgRNA knockout: sgATF4, 1000 nM	62.6
sgRNA knockout: sgATF6, 1 nM	65.8
sgRNA knockout: sgATF6, 10 nM	57.8
sgRNA knockout: sgATF6, 100 nM	62.5
sgRNA knockout: sgATF6, 1000 nM	58.7
sgRNA knockout: sgATG7, 1 nM	57.7
sgRNA knockout: sgATG7, 10 nM	56.1
sgRNA knockout: sgATG7, 100 nM	63.3
sgRNA knockout: sgATG7, 1000 nM	66.3
sgRNA knockout: sgERN1, 1 nM	62.3
sgRNA knockout: sgERN1, 10 nM	59.1
sgRNA knockout: sgERN1, 100 nM	69.29
sgRNA knockout: sgERN1, 1000 nM	68.02
sgRNA knockout: sgHSF1, 1 nM	65.9
sgRNA knockout: sgHSF1, 10 nM	61.1
sgRNA knockout: sgHSF1, 100 nM	62.9
sgRNA knockout: sgHSF1, 1000 nM	73.1
sgRNA knockout: sgHSF2, 1 nM	66.4
sgRNA knockout: sgHSF2, 10 nM	59.9
sgRNA knockout: sgHSF2, 100 nM	65.5
sgRNA knockout: sgHSF2, 1000 nM	62.7
sgRNA knockout: sgKEAP1, 1 nM	61.8
sgRNA knockout: sgKEAP1, 10 nM	62.5
sgRNA knockout: sgKEAP1, 100 nM	65.5
sgRNA knockout: sgKEAP1, 1000 nM	65.3
sgRNA knockout: sgNFE2L2, 1 nM	62.8
sgRNA knockout: sgNFE2L2, 10 nM	55.7
sgRNA knockout: sgNFE2L2, 100 nM	63.9
sgRNA knockout: sgNFE2L2, 1000 nM	59.3
sgRNA knockout: sgSLC35F2, 1 nM	61.7
sgRNA knockout: sgSLC35F2, 10 nM	59.9
sgRNA knockout: sgSLC35F2, 100 nM	65.8
sgRNA knockout: sgSLC35F2, 1000 nM	68.6
sgRNA knockout: sgXBP1, 1 nM	62.4
sgRNA knockout: sgXBP1, 10 nM	59.6
sgRNA knockout: sgXBP1, 100 nM	63.9
sgRNA knockout: sgXBP1, 1000 nM	60.7

Nc1nc(OCc2cc(Br)cs2)c2[nH]cnc2n1 [Lomeguatrib]
Conditions	relative cell number
sgRNA knockout: sgATF3, 10 nM	103
sgRNA knockout: sgATF3, 100 nM	87.1
sgRNA knockout: sgATF3, 1000 nM	92.17
sgRNA knockout: sgATF3, 10000 nM	86.5
sgRNA knockout: sgATF4, 10 nM	100.1
sgRNA knockout: sgATF4, 100 nM	83.6
sgRNA knockout: sgATF4, 1000 nM	84.1
sgRNA knockout: sgATF4, 10000 nM	84.8
sgRNA knockout: sgATF6, 10 nM	106
sgRNA knockout: sgATF6, 100 nM	104
sgRNA knockout: sgATF6, 1000 nM	92.4
sgRNA knockout: sgATF6, 10000 nM	76.7
sgRNA knockout: sgATG7, 10 nM	95.2
sgRNA knockout: sgATG7, 100 nM	83.5
sgRNA knockout: sgATG7, 1000 nM	80.7
sgRNA knockout: sgATG7, 10000 nM	92.6
sgRNA knockout: sgERN1, 10 nM	105
sgRNA knockout: sgERN1, 100 nM	91.5
sgRNA knockout: sgERN1, 1000 nM	88.6
sgRNA knockout: sgERN1, 10000 nM	90.7
sgRNA knockout: sgHSF1, 10 nM	114
sgRNA knockout: sgHSF1, 100 nM	101
sgRNA knockout: sgHSF1, 1000 nM	108
sgRNA knockout: sgHSF1, 10000 nM	81.5
sgRNA knockout: sgHSF2, 10 nM	105.04
sgRNA knockout: sgHSF2, 100 nM	94.9
sgRNA knockout: sgHSF2, 1000 nM	89.4
sgRNA knockout: sgHSF2, 10000 nM	81.3
sgRNA knockout: sgKEAP1, 10 nM	98.8
sgRNA knockout: sgKEAP1, 100 nM	103
sgRNA knockout: sgKEAP1, 1000 nM	91.1
sgRNA knockout: sgKEAP1, 10000 nM	82.3
sgRNA knockout: sgNFE2L2, 10 nM	98.4
sgRNA knockout: sgNFE2L2, 100 nM	80.6
sgRNA knockout: sgNFE2L2, 1000 nM	79.5
sgRNA knockout: sgNFE2L2, 10000 nM	92.6
sgRNA knockout: sgSLC35F2, 10 nM	97.5
sgRNA knockout: sgSLC35F2, 100 nM	97.3
sgRNA knockout: sgSLC35F2, 1000 nM	90.3
sgRNA knockout: sgSLC35F2, 10000 nM	75.1
sgRNA knockout: sgXBP1, 10 nM	99.6
sgRNA knockout: sgXBP1, 100 nM	84.8
sgRNA knockout: sgXBP1, 1000 nM	88.9
sgRNA knockout: sgXBP1, 10000 nM	86
